Measurements taken from PubChem BioAssay (EPA / NIEHS).
Values joined by “and” are separate entries in the source; they are usually repeats but may differ in a detail not shown here. Equal values may be shown once. Inconclusive results, whose numbers are uncertain, are shown with a selection of clear calls. For some assays here: Potencies of inconclusive entries are doubtful fits and often do not repeat. Active and inactive are the calls of the source. How the source made its calls: active means hit-call score of the fitted dose curve at least 0.9, where 1 is the maximum; inconclusive means response in the unintended direction; inactive means score below 0.9.

By UniProt entry, the sequences of proteins in these tests, tags left out.
UniProt P04637, whole entry, looked up: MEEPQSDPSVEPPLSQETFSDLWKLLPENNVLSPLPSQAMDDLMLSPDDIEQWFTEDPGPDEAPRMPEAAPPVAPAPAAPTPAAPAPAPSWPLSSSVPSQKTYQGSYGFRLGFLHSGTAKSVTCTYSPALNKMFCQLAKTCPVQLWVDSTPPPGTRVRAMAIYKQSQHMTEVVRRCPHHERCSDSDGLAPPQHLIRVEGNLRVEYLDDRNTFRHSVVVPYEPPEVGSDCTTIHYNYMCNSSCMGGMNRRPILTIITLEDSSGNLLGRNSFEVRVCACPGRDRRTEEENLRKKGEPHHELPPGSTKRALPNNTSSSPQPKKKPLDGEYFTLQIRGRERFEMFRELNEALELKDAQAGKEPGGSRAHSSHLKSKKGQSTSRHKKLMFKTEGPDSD

Biological target: Cellular tumor antigen p53 (Homo sapiens) (UniProt P04637)
Assay: TOX21_p53_BLA_p3_ratio: Tox21 HCT-116 p53 Agonism Beta-lactamase Assay, Ratio, Phase 3 (AID 2283596)
How it was run: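 HCT116 p53-bla cells (4000/well) given compound in DMSO (217-fold dilution) after 5 h, incubated 16 h at 37C. CCF4-AM substrate 2 h at room temperature; 460/530 nm emission ratio, gain fitted against DMSO.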
In the case of `CC1(C)[C@H](C=C(Cl)Cl)[C@@H]1C(=O)O[C@@H](C#N)c1cccc(Oc2ccccc2)c1`, the outcome was “inactive”. For `CC1CN1` (stereo not given), the outcome was “inactive”. In the case of `O=NN1CCNCC1`, the outcome was “inactive”.

Test system: not listed separately
Assay: TOX21_p53_BLA_p4_viability: Viability Assessment in the Tox21 HCT-116 p53 Agonism Beta-lactamase Assay, Phase 4 (AID 2283597);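 further: hits lower the luminescence signal meaning cytotoxicity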
How it was run: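 HCT-116 p53-bla cells, 4000/well, dosed after 5 h attachment and incubated 16 h at 37 °C, 5% CO2. Viability from CellTiter-Glo ATP luminescence after 30 min at room temperature, taken after the beta-lactamase read; loss of signal indicates cytotoxicity.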
With `ClC=CCl` the outcome was “inactive”. For `CCCCC(CC)COC(=O)OOC(C)(C)C` (stereo not given), the AC50 was inconclusive: 46.1 µM. For `CCNc1nc(NC(C)C)nc(OC)n1`, the outcome was “inactive”. For `O=C/C=C/c1ccco1`, the outcome was “inactive”. In the case of `Cc1cnc[nH]1`, the AC50 was inconclusive: 8.85 µM. With `CCCCC#N` the outcome was “inactive”. For `Clc1cc(Cl)c(-c2cc(Cl)c(Cl)cc2Cl)cc1Cl`, the AC50 was inconclusive: 22.4 µM. With `CCC1(c2ccccc2)CCC(=O)NC1=O` (stereo not given) the AC50 was inconclusive: 2.16 µM. With `COc1ccc2c(c1OC)C(=O)O[C@H]2[C@@H]1c2cc3c(cc2CCN1C)OCO3` the AC50 was inconclusive: 6 µM. With `CCC(=O)O[C@](Cc1ccccc1)(c1ccccc1)[C@H](C)CN(C)C` the outcome was “inactive”. In the case of `Cc1ccc(Cl)c(O)c1`, the AC50 was inconclusive: 0.0216 µM. With `CCC(=O)O[C@H]1[C@@H](N2CCCCC2)C[C@H]2[C@@H]3CC[C@H]4C[C@H](OC(C)=O)[C@@H](N5CCCCC5)C[C@]4(C)[C@H]3CC[C@@]21C` the AC50 was inconclusive: 23 µM. For `CC(=O)OC1CN2CCC1CC2` (stereo not given), the AC50 was inconclusive: 10.9 µM. For `CCCCCCC#N`, the outcome was “inactive”. In the case of `CC1N=C(N)OC1c1ccccc1` (stereo not given), the AC50 was active: 26 µM. In the case of `COc1ccc(CN2CCNCC2)c(OC)c1OC`, the outcome was “inactive”. For `COC(=O)C(Cl)C(=O)OC`, the outcome was “inactive”. For `CCCN(CCCl)c1c([N+](=O)[O-])cc(C(F)(F)F)cc1[N+](=O)[O-]`, the AC50 was inconclusive: 0.308 µM. For `C=C(C#N)CCC#N`, the AC50 was inconclusive: 1.43 µM. For `C=C[C@H]1CN2CC[C@H]1C[C@@H]2[C@@H](O)c1ccnc2ccccc12`, the outcome was “inactive”. For `Cc1ccccc1-n1c(C)nc2ccccc2c1=O`, the AC50 was inconclusive: 37.9 µM and the outcome was “inactive”. With `CC1CN1` (stereo not given) the outcome was “inactive”. With `CC(=O)OCC1=C(C(=O)O)N2C(=O)[C@@H](N)[C@H]2SC1` the AC50 was inconclusive: 10.3 µM.

Biological target: Cellular tumor antigen p53 (Homo sapiens) (UniProt P04637)
Assay: TOX21_p53_BLA_p5_ratio: Tox21 HCT-116 p53 Agonism Beta-lactamase Assay, Ratio, Phase 5 (AID 2283599)
How it was run: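 HCT-116 p53-bla cells (4000/well) plated 5 h, dosed with compound (217-fold DMSO dilution) for 16 h at 37 C; CCF4-AM substrate 2 h at room temperature. Activity is the 460/530 nm emission ratio (405 nm excitation), fitted in gain-of-signal direction versus DMSO.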
With `CC[C@H]1[C@@H]2C[C@H]3[C@@H]4N(C)c5ccccc5[C@]45C[C@@H](C2C5O)N3[C@@H]1O` (stereo not given in full) the AC50 was inconclusive: 10.3 µM. For `CCCCC(CC)COC(=O)OOC(C)(C)C` (stereo not given), the outcome was “inactive”. With `COC1=CC(=O)O[C@@H](/C=C/c2ccccc2)C1` the AC50 was inconclusive: 46.6 µM. For `O=C/C=C/c1ccco1`, the AC50 was inconclusive: 46.1 µM. With `Cc1cnc[nH]1` the AC50 was inconclusive: 44.6 µM. With `CCCCC#N` the AC50 was inconclusive: 2.97e-05 µM. For `Clc1cc(Cl)c(-c2cc(Cl)c(Cl)cc2Cl)cc1Cl`, the outcome was “inactive”. In the case of `CCCCc1ccc(C(=O)O)nc1`, the AC50 was inconclusive: 23 µM. With `CCCCC1C(=O)NC(=O)N(C2CCCCC2)C1=O` (stereo not given) the outcome was “inactive”. With `CC(C)Br` the AC50 was inconclusive: 46.2 µM. In the case of `CCC(=O)O[C@H]1[C@@H](N2CCCCC2)C[C@H]2[C@@H]3CC[C@H]4C[C@H](OC(C)=O)[C@@H](N5CCCCC5)C[C@]4(C)[C@H]3CC[C@@]21C`, the AC50 was inconclusive: 23 µM. With `CC(=O)OC1CN2CCC1CC2` (stereo not given) the outcome was “inactive”. For `CCCCCCC#N`, the outcome was “inactive”. In the case of `CC1N=C(N)OC1c1ccccc1` (stereo not given), the AC50 was inconclusive: 41.7 µM. In the case of `COc1ccc(CN2CCNCC2)c(OC)c1OC`, the AC50 was inconclusive: 10.3 µM. For `COC(=O)C(Cl)C(=O)OC`, the AC50 was inconclusive: 23 µM. For `C[N+](C)(C)CCOC(=O)C(O)(c1ccccc1)c1ccccc1`, the AC50 was inconclusive: 23 µM. In the case of `CCCN(CCCl)c1c([N+](=O)[O-])cc(C(F)(F)F)cc1[N+](=O)[O-]`, the AC50 was inconclusive: 46.1 µM. With `C=C(C#N)CCC#N` the outcome was “inactive”. For `C=C[C@H]1CN2CC[C@H]1C[C@@H]2[C@@H](O)c1ccnc2ccccc12`, the outcome was “inactive”. In the case of `Cn1cc[n+](C)c1` (tested in a mixture with another compound), the AC50 was inconclusive: 46.3 µM. With `Cc1ccccc1-n1c(C)nc2ccccc2c1=O` the AC50 was inconclusive: 23 µM. In the case of `CC1CN1` (stereo not given), the AC50 was inconclusive: 86.4 µM. In the case of `O=NN1CCNCC1`, the AC50 was inconclusive: 50.3 µM. With `CC(=O)OCC1=C(C(=O)O)N2C(=O)[C@@H](N)[C@H]2SC1` the outcome was “inactive”.

Test system: not listed separately
Assay: TOX21_p53_BLA_p5_viability: Viability Assessment in the Tox21 HCT-116 p53 Agonism Beta-lactamase Assay, Phase 5 (AID 2283600)
How it was run: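 HCT-116 p53 beta-lactamase reporter cells, 4000/well, were exposed to compound (pin transfer, 217-fold dilution) for 16 hours at 37C. Cellular ATP was read by CellTiter-Glo luminescence after 30 min at room temperature.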
For `CC[C@H]1[C@@H]2C[C@H]3[C@@H]4N(C)c5ccccc5[C@]45C[C@@H](C2C5O)N3[C@@H]1O` (stereo not given in full), the outcome was “inactive”. For `CCCCC(CC)COC(=O)OOC(C)(C)C` (stereo not given), the AC50 was inconclusive: 2.17 µM. For `O=C/C=C/c1ccco1`, the outcome was “inactive”. For `Clc1cc(Cl)c(-c2cc(Cl)c(Cl)cc2Cl)cc1Cl`, the outcome was “inactive”. In the case of `CC(=O)OCC(=O)[C@H]1CC[C@H]2[C@@H]3CC[C@H]4C[C@H](O)CC[C@]4(C)[C@H]3C(=O)C[C@]12C`, the outcome was “inactive”. For `O=C(O)c1ccccn1`, the outcome was “inactive”. With `CCC(=O)O[C@](Cc1ccccc1)(c1ccccc1)[C@H](C)CN(C)C` the AC50 was inconclusive: 45.5 µM. In the case of `CC(C)Br`, the AC50 was inconclusive: 46.2 µM. With `Cn1cc[n+](C)c1` (tested in a mixture with another compound) the outcome was “inactive”. With `Cc1ccccc1-n1c(C)nc2ccccc2c1=O` the AC50 was inconclusive: 82.3 µM and inconclusive: 23 µM. In the case of `CC1(C)[C@H](C=C(Cl)Cl)[C@@H]1C(=O)O[C@@H](C#N)c1cccc(Oc2ccccc2)c1`, the outcome was “inactive”. With `O=NN1CCNCC1` the outcome was “inactive”. For `CC(=O)OCC1=C(C(=O)O)N2C(=O)[C@@H](N)[C@H]2SC1`, the AC50 was inconclusive: 10.3 µM.
